Data as given in PubChem BioAssay AID602196 (INSERM, 2012)

Aim: 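Genes whose knock-down alters cisplatin killing of lung cancer cells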
Cells: human A549 lung cancer cells
Knock-down reagent: siRNA pair against human genes
Timing: 48 h transfection before cisplatin; time from cisplatin to read-out not stated
Conditions: cisplatin at a dose killing half of control-siRNA cells; exact dose and duration not given
Measured: 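Shift in cisplatin death relative to control siRNA, from -50 (all cells die) to +50 (no cells die); siRNAs harmful on their own scored 0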
Scale: two-siRNA summed score (-2 to +2): higher = both siRNAs protect from cisplatin killing; -2 means both sensitise; mean protection from cisplatin (shift in death) and protection from cisplatin (shift in death), siRNA C and protection from cisplatin (shift in death), siRNA D: higher = protection from cisplatin killing
Call rule: 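Each siRNA scores 0 if harmful alone by LDH or WST-1, otherwise +1 if it reduces and -1 if it increases cisplatin killing; a gene is active when both siRNAs agree (sum +2 or -2)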
Calls: active = both siRNAs shift cisplatin killing the same way; inactive = no consistent shift, or siRNA harmful alone
In all, the deposit lists about 23,000 reagents; shown is a part drawn at random. 455 of them (2%) were called active. 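Active includes both protection and sensitisation; some change values fall well beyond the stated -50 to +50 range.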 Not stated in the record: the amount of reagent.

gene symbol	two-siRNA summed score (-2 to +2)	mean protection from cisplatin (shift in death) (%)	protection from cisplatin (shift in death), siRNA C (%)	protection from cisplatin (shift in death), siRNA D (%)	Outcome
LOC400452	0	13	22.3	3.6	inactive
PATZ1	0	1.8	-4.6	8.2	inactive
CEP162	1	10.7	12.9	8.5	inactive
PCDHA1	2	15	11.8	18.2	active
CKS2	0	11.3	9.2	13.3	inactive
KISS1R	0	2.7	-10	15.4	inactive
VSTM2A	-1	-1.7	-13.3	10	inactive
NOTCH2NLA	1	8.5	3.7	13.4	inactive
LOC89231	2	10.4	12.2	8.5	active
ANKS4B	1	8.5	0.4	16.5	inactive
CYP4F11	0	-13.3	-13.8	-12.9	inactive
ALKBH2	-1	-7.9	3.6	-19.5	inactive
INTS6	0	-28.4	-54.3	-2.4	inactive
MACC1	-1	-12.7	-17.7	-7.7	inactive
LOC440204	1	6.9	-9.4	23.3	inactive
LOXHD1	0	-3.1	-2.4	-3.7	inactive
LOC401050	0	10.4	14.1	6.7	inactive
CCDC14	0	-1.2	5.1	-7.5	inactive
DIP2C	1	12.8	18.2	7.4	inactive
ZNF101	1	8.8	2.5	15	inactive
ZNF614	0	-12.5	-16.8	-8.2	inactive
IL1RN	-1	4	22.4	-14.5	inactive
FOS	0	8.1	3.9	12.3	inactive
LOC401624	0	4.2	2.6	5.8	inactive
MYOG	-1	-21.5	-7.5	-35.6	inactive
RNF113B	0	14.5	0	29	inactive
ADRA2A	0	-5.9	-2.9	-8.9	inactive
LOC402669	0	10.1	4.6	15.6	inactive
LOC440381	0	-2.4	-0.1	-4.7	inactive
DMXL1	0	-1.5	-10.2	7.1	inactive
CABP4	1	10.6	5.6	15.6	inactive
EXTL1	1	11	23.4	-1.4	inactive
TBC1D3F	0	4.3	3	5.6	inactive
LOC441383	0	5.9	10.2	1.5	inactive
PDHX	0	1.3	-1.6	4.2	inactive
MIMS1	0	0	13.4	-13.3	inactive
HLA-F	1	2	-20.4	24.5	inactive
LOC402011	0	8.3	6	10.6	inactive
OVOL2	1	0.6	13	-11.8	inactive
